Data published in patent US7183459B2, “Dwf7 mutants” (The Arizona Board of Regents on Behalf of the University of …, priority 2000, dated 2007).
Some of these results come from one statement about several compounds together. At least one structure is not confirmed: it was looked up by name or label, or the drawing left a doubt.

Tested on: dwf7-1 plants
Test: Feeding of BR biosynthetic intermediates to shoot tips of 3-week-old dwf7-1 plants
Assay type: in vivo, Arabidopsis thaliana
Conditions: applied daily to shoot tips, 1 week (FIG. 4)
Protocol: Feeding experiments using biosynthetic intermediates were performed with 3-week-old mutant plants. The intermediates tested were diluted to the desired concentration with water containing 0.01% Tween 20. Two microliters of each brassinosteroid (BR) solution was applied daily to the shoot tips of plants by using a micro pipettman. After 1 week of treatment, total growth of inflorescence and pedicels was measured to the nearest millimeter (n=15).
To pinpoint the defective step in the BR biosynthetic pathway, dwf7-1 mutants were treated with BR biosynthetic intermediates. Due to undetectable bioactivity of some early intermediates (CR to 6-oxocampestanol) in bioassays (Fujioka et al. 1995; Choe et al. (1998) Plant Cell 10:231–243), these were not used. Instead, three biologically active compounds were chosen, 22-OHCR, 6-deoxoCT, and BL, for these feeding tests (see FIG. 1). Because the 22α-hydroxylation reaction is reported to be mediated by DWF4 (Choe et al. (1998) Plant Cell 10:231–243), biochemical complementation of dwf mutants other than dwf4 by 22-OHCR places the defective step upstream of CR.
Similarly, 3-week-old inflorescences of dwf7-2 were tested with 22-OHCR, 6-deoxoCT, teasterone, and BL.

Compound	increase of dwf7-1 pedicel length as compared with the control [%]
CC(C)[C@H](C)C[C@H](O)[C@@H](C)[C@H]1CC[C@H]2[C@@H]3CC=C4C[C@@H](O)CC[C@]4(C)[C@H]3CC[C@]12C [22-OHCR, 22 α-hydroxycampesterol]	> 200
CC(C)[C@H](C)[C@@H](O)[C@H](O)[C@@H](C)[C@H]1CC[C@H]2[C@@H]3COC(=O)[C@H]4C[C@H](O)[C@H](O)C[C@]4(C)[C@H]3CC[C@]12C [BL, brassinolide]	> 200
CC(C)[C@H](C)C[C@H](O)[C@@H](C)[C@H]1CC[C@H]2[C@@H]3CC[C@H]4C[C@@H](O)CC[C@]4(C)[C@H]3CC[C@]12C [6-deoxoCT]	> 200
